# “And” between values parts separate entries of the source, which are not always exact repeats. Equal entries are not always repeated. Structures can show the parent of a compound that is named as a salt. ± gives the standard deviation of the averaged measurements. This is one part of the list. The data scatter; read single values as rough.
# System: Salmonella enterica serovar Typhimurium ST313 D23580
# Test: normalized bacterial growth (OD600 20 h minus 0 h, interquartile-mean normalized) (fraction of plate interquartile mean); higher = more bacterial growth (less inhibition)
# Conditions: LPM (pH 5.8, low phosphate, low Mg2+), concentration: 10 µM, temperature: 37 °C
row,Compound,normalized bacterial growth
1,CC(=O)OC/C=C(\C)CC/C=C(\C)CC/C=C(\C)CC/C=C(\C)CC/C=C(\C)CC/C=C(\C)CC/C=C(\C)CC/C=C(\C)CCC=C(C)C,1.26
2,CN(C)C(=N)NC(=N)N,1.13
3,CC1CC2C3CCC4=CC(=O)C=CC4(C)C3(F)C(O)CC2(C)C1C(=O)CO (centres undefined),0.845
4,CC=CC(=O)N(CC)c1ccccc1C,1.02
5,CNCCc1ccccn1,1.09
6,CNCCc1ccccn1 [Betahistine mesylate],0.965
7,CCCCCCCCCCCCCCCC(=O)OC[C@H](O)[C@H]1OC(=O)C(O)=C1O,0.709
8,Nc1nc2c(ncn2COC(CO)CO)c(=O)[nH]1 [Ganciclovir],1.12
9,N=C(N)NCCCCNC(=N)N [Arcaine sulfate],0.966
10,CO[C@H]1/C=C/O[C@@]2(C)Oc3c(C)c(O)c4c(O)c(c5c(nc6cc(C)ccn65)c4c3C2=O)NC(=O)/C(C)=C\C=C\[C@H](C)[C@H](O)[C@@H](C)[C@@H](O)[C@@H](C)[C@H](OC(C)=O)[C@@H]1C,1.09
11,Clc1cccc(Cl)c1NC1=NCCN1 [Clonidine hydrochloride],1.12 ± 0.028
12,CN(C)S(=O)(=O)c1ccc2c(c1)/C(=C/c1cc3c([nH]1)CCCC3)C(=O)N2,0.586
13,CC1(C)CC2C1CC[C@]1(C)CCC3C(C(=O)O)CC(=O)O[C@@]32C1 (some centres undefined) [3-HYDROXY-4-(SUCCIN-2-YL)-CARYOLANE delta-LACTONE],1.03
14,CCN(CC)C(C)CN1c2ccccc2Sc2ccccc21 (centres undefined),0.588
15,CCCNC(=O)NS(=O)(=O)c1ccc(Cl)cc1 [Chlorpropamide],0.962
16,CC(=O)O[C@]1(C(C)=O)CC[C@H]2[C@@H]3C=C(Cl)C4=CC(=O)CC[C@]4(C)[C@H]3CC[C@@]21C,1.4
17,CSC(=N)N [S-Methylisothiourea hemisulfate],1.2
18,CN(C)CCOC(c1ccccc1)c1ccccc1.Cn1c(=O)c2[nH]c(Cl)nc2n(C)c1=O,0.995
19,C[C@@H]1CC[C@@]23CCC4(C)[C@@](C=CC5[C@@]6(C)CC[C@H](O)C(C)(C)C6CC[C@]54C)(OC2=O)C3[C@H]1C (some centres undefined),0.954
20,Cl.N[C@@H](CCC(=O)O)C(=O)O [L-Glutamic acid hydrochloride],1.19
21,COc1ccc([C@@H]2CC(=O)c3c(O)cc(OC4O[C@H](CO[C@H]5O[C@@H](C)[C@@H](O)[C@@H](O)[C@H]5O)[C@H](O)[C@H](O)[C@H]4O)cc3O2)cc1O (some centres undefined),1.34

row,Compound,normalized bacterial growth
1,O=C1NCC2(CCN(CCc3ccccc3)CC2)O1 [Fenspiride hydrochloride],0.907
2,Clc1ccc2c(c1)CCc1cccnc1C2=C1CCNCC1,0.693 and 0.91
3,CCCCC/C=C/C=C/C(=O)NCC(C)C,0.769
4,COc1cc(C)c(C(=O)Oc2cc(C)c(C(=O)O)c(O)c2C)c(OC)c1C,0.85
5,O=C1NC(=O)c2cc(Nc3ccccc3)c(Nc3ccccc3)cc21,0.87
6,CSCC[C@H](NC=O)C(=O)N[C@@H](Cc1ccccc1)C(=O)O,1.27
7,CC(=O)O[C@@H]1C[C@H]2C(C)(C)C(=O)C=C[C@]2(C)[C@H]2CC[C@@]3(C)[C@H](c4ccoc4)OC(=O)[C@H]4O[C@]43[C@@]21C,0.867
8,CCCOc1ccc2[nH]c(NC(=O)OC)nc2c1,0.935
9,Cc1cc2nc3c(=O)[nH]c(=O)nc-3n(C[C@H](O)[C@H](O)[C@H](O)CO)c2cc1C,1.28
10,Cc1cc2nc3c(=O)[nH]c(=O)nc-3n(C[C@H](O)[C@H](O)[C@H](O)CO)c2cc1C [Riboflavine],1.16
11,C[C@H]1[C@H](C)CC[C@]2(C(=O)O)CC[C@]3(C)C(=CC[C@@H]4[C@@]5(C)CC[C@H](O)C(C)(C)[C@@H]5CC[C@]43C)[C@H]12,1.05 ± 0.078
12,O=C(c1ccc(F)cc1)C1CCN(CCn2c(=O)[nH]c3ccccc3c2=O)CC1 [Ketanserin tartrate hydrate],0.946
13,O=C(c1ccc(F)cc1)C1CCN(CCn2c(=O)[nH]c3ccccc3c2=O)CC1 [Ketanserin tartrate],1.17
14,CCN(CC)C(=O)c1ccc(O)c(OC)c1 [Vanillic acid diethylamide],0.997
15,NC1(C(=O)O)CC1 [1-Aminocyclopropanecarboxylic acid hydrochloride],1.14
16,NC1(C(=O)O)CC1,0.83
17,Oc1cc2c(cc1O)C1c3ccc(O)c(O)c3OCC1(O)C2 (centres undefined),1.02
18,CC(=O)[C@@]1(O)CC[C@H]2[C@@H]3CCC4=CC(=O)CC[C@]4(C)[C@H]3CC[C@@]21C,0.995
19,O=C(O)/C=C/C(O)c1ccc(Cl)cc1 (centres undefined),0.844
20,CC(C)CC(NC(=O)OCC1c2ccccc2-c2ccccc21)C(=O)O (stereo in doubt),1.14
21,COC(=O)C1=C(C)NC(C)=C(C(=O)OC(C)(C)CN(C)CCC(c2ccccc2)c2ccccc2)C1c1cccc([N+](=O)[O-])c1 (centres undefined) [Lercanidipine hydrochloride hemihydrate],0.835

row,Compound,normalized bacterial growth
1,C[C@]12CCC(=O)C=C1CC[C@@H]1[C@@H]2CC[C@@]2(C)[C@H]1CC[C@]2(O)C(=O)CO [Cortexolone],1.12
2,COc1ccc2cc1Oc1ccc(cc1)C[C@H]1c3cc(c(OC)cc3CCN1C)Oc1c(OC)c(OC)c(OC)c3c1[C@H](C2)N(C)CC3,0.788
3,CN(C)CCC(c1ccc(Br)cc1)c1ccccn1 (centres undefined) [()-Brompheniramine maleate],1.06
4,COc1ccc(Cl)cc1NC(=O)Nc1cc(C)nc2ccccc12,1.47
5,"COc1ccccc1N1CCN(CCCNc2c(C)c(=O)n(C)c(=O)n2C)CC1 [""Urapidil, 5-Methyl-""]",1.01
6,Oc1c(Cl)cc(Cl)c2cccnc12,0.0117
7,c1ccc(-c2ccc(C(c3ccccc3)n3ccnc3)cc2)cc1 (centres undefined),0.454
8,CC(=O)OC[C@H]1O[C@@H]([S-])[C@H](OC(C)=O)[C@@H](OC(C)=O)[C@@H]1OC(C)=O.CCP(CC)CC.[Au+],0.475
9,N#Cc1ccc2c(c1)N(CCCN1CCC(O)CC1)c1ccccc1S2,0.845
10,CC1CCN(CC[C@H]2CCCN2S(=O)(=O)c2cccc(O)c2)CC1,0.81
11,Nc1ncnc2c1ncn2[C@@H]1O[C@H](CO)[C@@H](O)[C@@H]1O [Vidarabine],0.98
12,Nc1ncnc2c1ncn2[C@@H]1O[C@H](CO)[C@@H](O)[C@@H]1O,0.891
13,NC[C@@H]1O[C@H](C23CC4CC(CC(C4)C2)C3)Cc2c1ccc(O)c2O,0.791
14,O=c1[nH]cnc2nc[nH]c12,0.989
15,C[C@@](Cc1ccc(O)c(O)c1)(NN)C(=O)O,1.02
16,Oc1cc2c(cc1O)C(c1ccccc1)CNCC2 (centres undefined),1.13 and 1.07
17,COc1ccc2cc1Oc1ccc(cc1)C[C@@H]1c3cc(c(OC)cc3CCN1C)Oc1c(OC)c(OC)cc3c1[C@H](C2)N(C)CC3,1
18,CN1CCN(CC(=O)N2c3ccccc3C(=O)Nc3cccnc32)CC1 [Pirenzepine dihydrochloride],1.22
19,CN(CCCCCCCCCCN(C)C(=O)Oc1cccc([N+](C)(C)C)c1)C(=O)Oc1cccc([N+](C)(C)C)c1 [Demecarium bromide],0.885
20,CC(=O)N(CC(O)CO)c1c(I)c(C(=O)NCC(O)CO)c(I)c(C(=O)NCC(O)CO)c1I (centres undefined) [Iohexol],1.24
21,COC(=O)Nc1nc2cc(Sc3ccccc3)ccc2[nH]1 [Fenbendazole],1.02

# A different layout for part of the listing above:
row | Compound | normalized bacterial growth
3 | CN(C)CCC(c1ccc(Br)cc1)c1ccccn1 (centres undefined) [()-Brompheniramine maleate] | 1.06
4 | COc1ccc(Cl)cc1NC(=O)Nc1cc(C)nc2ccccc12 | 1.47
5 | COc1ccccc1N1CCN(CCCNc2c(C)c(=O)n(C)c(=O)n2C)CC1 ["Urapidil, 5-Methyl-"] | 1.01
6 | Oc1c(Cl)cc(Cl)c2cccnc12 | 0.0117
7 | c1ccc(-c2ccc(C(c3ccccc3)n3ccnc3)cc2)cc1 (centres undefined) | 0.454

# Next entries follow.

row,Compound,normalized bacterial growth
1,COC(=O)Nc1nc2cc(Sc3ccccc3)ccc2[nH]1,0.86
2,CNCCc1cnc(CCC(c2ccccc2)c2ccccc2)[nH]1 [N-Methylhistaprodifen dioxalate salt],0.822
3,NC(Cn1ccc(=O)c(O)c1)C(=O)O (centres undefined),1.2
4,CC(C)NCC(O)COc1ccc(CC(N)=O)cc1 (centres undefined) [()-Atenolol],0.607
5,COc1cc2ccc(=O)oc2c(O)c1O,0.79
6,CC(CNC1CCCCC1)OC(=O)c1ccccc1 (centres undefined) [Hexylcaine hydrochloride],1.06
7,Nc1ccc(S(=O)(=O)Nc2nccs2)cc1,0.993
8,COC(=O)C(O)c1ccccc1 (centres undefined),1.01
9,Cc1ccc(-c2cc(C(F)(F)F)nn2-c2ccc(S(N)(=O)=O)cc2)cc1,0.775
10,O=C1c2ccccc2C(=O)c2c(O)c(O)cc(O)c21,0.707
11,CC(C)[N+]1(C)[C@@H]2CC[C@H]1C[C@@H](OC(=O)C(CO)c1ccccc1)C2 (some centres undefined),1.2
12,CC(C)[N+]1(C)[C@@H]2CC[C@H]1C[C@@H](OC(=O)C(CO)c1ccccc1)C2 (some centres undefined) [Ipratropium bromide],1.13 ± 0.21
13,CC[C@H]1OC(=O)[C@H](C)[C@@H](O[C@H]2C[C@@](C)(OC)[C@@H](O)[C@H](C)O2)[C@H](C)[C@@H](O[C@@H]2O[C@H](C)C[C@H](N(C)C)[C@H]2O)[C@](C)(O)C[C@@H](C)CN(C)[C@H](C)[C@@H](O)[C@]1(C)O,0.871
14,C[C@@H]1CCC[C@H](C)N1NC(=O)c1ccc(Cl)c(S(N)(=O)=O)c1,1.14
15,C[C@@H]1CCC[C@H](C)N1NC(=O)c1ccc(Cl)c(S(N)(=O)=O)c1 [Clopamide],1.1
16,CCOC(=O)C(Cc1ccc(O)cc1)NC(C)=O (centres undefined),1.01
17,CN[C@H]1CC[C@@H](c2ccc(Cl)c(Cl)c2)c2ccccc21 [Sertraline hydrochloride],0.921
18,COc1ccc2c(c1)c(CC(=O)O)c(C)n2Cc1ccc(F)cc1 [1-(4-Fluorobenzyl)-5-methoxy-2-methylindole-3-acetic acid],0.93
19,O[C@H]1[C@H](O)[C@@H](O)C2OC[C@H]1O2,1.19
20,CC(=O)Nc1c(I)c(C(=O)N[C@H]2C(O)O[C@H](CO)[C@@H](O)[C@@H]2O)c(I)c(N(C)C(C)=O)c1I (some centres undefined) [Metrizamide],0.532
21,NC[C@H](O)c1ccc(O)c(O)c1,1.17
